# Values quoted from earlier work as cited in patent US9782610B2, “Nontoxic, non-endocrine disrupting, cytoprotective, UV-radiation resistant sunblock compositions” (3rd Rock Sunblock, Inc., priority 2007, dated 2017).
# At least one compound was matched to its structure with a doubt left.
# What was measured:
# estrogenic activity = conditions: uterine wet weight, cell height, cell proliferation assays
smiles,measurement,setting,value
CCCCC(CC)COC(=O)C=Cc1ccc(OC)cc1 (centres unmarked) [octyl methoxycinnamate],activity in cells / cancer cell growth,cancer cells,made cancer cells grow more rapidly
same,estrogenicity,estrogenic activity,highly estrogenic
